Record: PubChem BioAssay AID504784 (Drosophila RNAi Screening Center, 2011)
In all, the deposit lists about 17,000 reagents; this is an unselected part of those with a known target gene and a result. 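Each column is one replicate's B-score; the combined score over replicates was not deposited, so single values may mislead.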 Reagents against one gene are numbered here. Names joined by + are all predicted targets of the reagent. Not all columns of the deposit are shown. Reagent sequences are not shown.

Purpose: 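Search for regulators of lipid droplet storage in oleate-fed fly cells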 (primary screen)
Cells: Drosophila Kc167 embryonic cells
Reagent: long dsRNA against Drosophila genes, about 250 ng dsRNA per well
Duration: 4 days
Treatment: cells fed 400 µM oleic acid bound to BSA
Measured: 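Microscope images give a droplet-to-nucleus area ratio, taken as log and converted to a screen-wide B-score; higher values mean greater lipid storage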
Reading the numbers: droplet/nuclear area B-score: higher = more stored lipid (overstorage)

| gene | reagent no. | droplet/nuclear area B-score, replicate 1 |
| --- | --- | --- |
| CG18746 | 1 | -0.943 |
| Bub1 | 1 | 4.67 |
| Bub1 | 2 | -1.68 |
| ReepA | 1 | 1.24 |
| ReepA | 2 | -1.21 |
| HDAC4 | 1 | 0.289 |
| Esyt2 | 1 | 1.38 |
| pyd3 | 1 | -3.61 |
| pyd3 | 2 | 0.676 |
| Est-P | 1 | 0.00404 |
| CG5569 | 1 | -0.189 |
| CG1927 | 1 | 0.386 |
| CG8944 | 1 | 0.427 |
| CG8944 | 2 | -0.0371 |
| Gale | 1 | 3.43 |
| CG5355 | 1 | -2.71 |
| wdn | 1 | -1.82 |
| CG18568 | 1 | -0.878 |
| galene | 1 | -0.6 |
| galene | 2 | 0.26 |
| AANATL2 | 1 | -0.00379 |
| CG13806 | 1 | -0.698 |
| kune | 1 | 0.056 |
| CG30099 | 1 | -0.348 |
| CG42306 + Gint3 | 1 | 0.357 |
| CG14763 | 1 | -0.365 |
| pont | 1 | 1.86 |
| CG13775 | 1 | -0.116 |
| MED19 | 1 | -3.14 |
| tutl | 1 | -0.523 |
| tutl | 2 | 0.0166 |
| tutl | 3 | 0.0155 |
| Cog7 | 1 | -0.0122 |
| CG12861 | 1 | -1.69 |
| CG12861 | 2 | 0.304 |
| slbo | 1 | 0.124 |
| CG8314 | 1 | 0.00497 |
| CG13516 | 1 | -1.75 |
| beat-IIb | 1 | -0.221 |
| beat-IIb | 2 | -0.875 |
| beat-IIb | 3 | -0.199 |
| ms(3)76Cc | 1 | 2.31 |
| ms(3)76Cc | 2 | 0.192 |
| CG17477 | 1 | 0.294 |
| CG31915 | 1 | 1.56 |
| Bet1 | 1 | 0.905 |
| CG40551 (retired record) | 1 | -1.02 |
| woc | 1 | -1.24 |
| CG1647 | 1 | 0.451 |
| CG30283 | 1 | 0.241 |
| Pus1 | 1 | 0.0361 |
| CG12581 | 1 | -1.37 |
| CG12581 | 2 | 0.0489 |
| DIP-gamma | 1 | -0.197 |
| CG8654 | 1 | -1.04 |
| CG13492 | 1 | 0.118 |
| Sox100B | 1 | -1.72 |
| Sox100B | 2 | 1.14 |
| Drp1 | 1 | 1.29 |
| hop | 1 | 0.285 |
| hop | 2 | -1.14 |
| nahoda | 1 | -1.17 |
| nahoda | 2 | 1.35 |
| rin | 1 | 3.21 |
| rin | 2 | 2.08 |
| EDTP | 1 | 0.106 |
| Nlg2 | 1 | -2.2 |
| Art6 | 1 | 3.34 |
| Nepl3 | 1 | -0.0902 |
| Obsc | 1 | 1.44 |
| Obsc | 2 | -0.172 |
| Obsc | 3 | -0.0587 |
| Obsc | 4 | -0.379 |
| Obsc | 5 | 0.12 |
| pasi1 | 1 | 0.0701 |
| pasi1 | 2 | 0.485 |
| CG13367 | 1 | -0.972 |
| CG13367 | 2 | -1.09 |
| GstD10 | 1 | -0.0817 |
| ATPsynC | 1 | -0.0183 |
| porin | 1 | 0.801 |
| Try29F | 1 | -0.654 |
| ZnT33D | 1 | 0.446 |
